Library screening results

The values are deposited in ChEMBL (CHEMBL3988442, “University of Dundee, Small-Polar-MMV Screening Library” (2021)).

Mtb growth Cornell: 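Whole-cell assay for inhibitors of Mycobacterium tuberculosis growth, labelled Cornell in the record; the read-out is not stated. The concentration is filed as 10 mM, unlikely as a test dose, so the dose is not known. Higher means stronger inhibition (inferred from two other growth screens of the library). Size under these conditions: about 53,000 compounds, about 900 of them at 50% or above in at least one test.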
Mtb heat-shock: 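Assay on Mycobacterium tuberculosis, filed only as a heat shock assay from Cornell; the read-out is not stated. The concentration is filed as 10 mM, unlikely as a test dose, so the dose is not known. Higher reads as stronger inhibition (inferred: compounds with an IC50 in retests scored well above the rest). Of about 69,000 compounds tested this way, about 930 (1.4%) reached 50% or more in at least one test.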

Results are given as percent effect.
How 0% and 100% were set is not recorded. Most values in the screen are low, and negative values occur.
This is an unselected part of the compounds tested.

Result for COc1ccc(C(=O)NC2CCN(c3ncccn3)CC2)cc1F was Mtb heat-shock: 6.602%. For Cc1cccc(NC(=O)c2cccc(OCc3nnnn3C)c2)n1 the result was Mtb growth Cornell: -24.47%; Mtb heat-shock: -8.875%. For O=C1Nc2ccccc2CC12CCN(CCO)C2 (configuration not stated) the result was Mtb growth Cornell: -45.04%; Mtb heat-shock: 13.74%. CCCc1nnc(NC(C)c2ccc3c(c2)OCCO3)o1 (configuration not stated) read Mtb growth Cornell: -33.96%; Mtb heat-shock: 5.915%.

O=c1c2ccccc2cnn1Cc1cncn1C1CC1 gave Mtb heat-shock: 7.899%. With CC1CCN(C(=O)CSCCN2CCOCC2)CC1 the screen gave Mtb growth Cornell: 17.76%; Mtb heat-shock: -9.557%. Result for Cn1ccc2ccc(C(=O)NC3CCOC(C)(C)C3)cc21 (configuration not stated) was Mtb growth Cornell: 33.83%; Mtb heat-shock: 9.695%. CN(C)S(=O)(=O)N1CCC(c2cccc(Cc3ccccc3Cl)n2)CC1 gave Mtb heat-shock: -23.01%.

Result for COc1cc(C)cc(C(C(=O)O)N(C)CCN2CCCC2)c1OC (configuration not stated) was Mtb growth Cornell: 4.591%; Mtb heat-shock: 3.787%. COc1cc(-c2nccn2CCn2cccn2)cc2c1OCO2 read Mtb heat-shock: -8.804%. For [H][C@@]12C[C@@H](OCc3cccnc3)CN1CCN(C(=O)c1ccsc1)C2 the result was Mtb heat-shock: 9.175%. Cc1ccnc(NC(=O)CSCc2cccnc2)c1 gave Mtb growth Cornell: 1.633%; Mtb heat-shock: 3.925%.

Result for Cc1ccc(S(=O)(=O)NCC2(O)CCOc3ccccc32)s1 (configuration not stated) was Mtb growth Cornell: 29.19%; Mtb heat-shock: 18.65%. CCOC(=O)COc1cccc(NC(=O)C2COCCO2)c1 (configuration not stated) gave Mtb growth Cornell: 12.18%; Mtb heat-shock: 3.995%. Result for Cc1ccc2nc(CN3CCCCC3C(=O)N3CCOCC3)cn2c1 (configuration not stated) was Mtb growth Cornell: -4.858%; Mtb heat-shock: 3.683%. CNc1ncc(CN2CCC(c3nnsc3S(C)(=O)=O)CC2)cn1 gave Mtb growth Cornell: 3.328%; Mtb heat-shock: -13.77%.

CC(C)Sc1ncccc1C(=O)NCc1ccc(CS(C)(=O)=O)cc1 read Mtb heat-shock: -5.712%. CC(C)N(CC(=O)Nc1cccc(C(=O)N(C)C)c1)C1CC1 gave Mtb heat-shock: 7.139%. COC(=O)c1ccc(NC(=O)CCNCc2ccco2)cc1 gave Mtb heat-shock: -1.165%. With CC(O)(CNC(=O)NCCc1ccc2c(c1)CCO2)c1ccsc1 (configuration not stated) the screen gave Mtb growth Cornell: -7.391%; Mtb heat-shock: 4.982%.

For NC(=O)C(CNC(=O)CCc1ccccc1)Cc1ccc(F)cc1 (configuration not stated) the result was Mtb growth Cornell: 24.69%; Mtb heat-shock: 16.6%. Result for CCN(CC)C1CCN(C(=O)c2cc(CC(C)C)nn2CC)C1 (configuration not stated) was Mtb heat-shock: -29.58%. Result for COc1ccc(C(=O)N2C[C@@H](C(=O)O)[C@H](c3cccc(F)c3)C2)c(O)c1 was Mtb heat-shock: 7.001%. Cl.O=C(NC[C@@]1(COc2cnccn2)C[C@@H](O)[C@@H](O)C1)C1CCCC1 gave Mtb growth Cornell: -19.19%; Mtb heat-shock: -20.41%.

For COCCN1CCC12CCN(C(=O)c1ccc(C)nc1)C2.O=C(O)C(F)(F)F (configuration not stated) the result was Mtb growth Cornell: -9.163%; Mtb heat-shock: 29.56%. Cc1ccc(-c2cc(CS(=O)(=O)NC3CCCNC3=O)on2)cc1 (configuration not stated) gave Mtb growth Cornell: -20.71%; Mtb heat-shock: 9.619%. For CC1c2cc(F)ccc2CCN1C(=O)c1[nH]c(=O)[nH]c(=O)c1N (configuration not stated) the result was Mtb growth Cornell: 102.8%; Mtb heat-shock: 7.045%. For Cc1ccc(CN2CCC3(CC2)NC(=O)CC3c2ccncc2)cc1C.O=C(O)C(F)(F)F.O=C(O)C(F)(F)F (configuration not stated) the result was Mtb growth Cornell: -59.24%; Mtb heat-shock: -32.12%.

For [H][C@]12CC[C@]([H])(CN(Cc3cscn3)C1)N(Cc1cc(C(C)(C)C)[nH]n1)C2 the result was Mtb growth Cornell: 12.91%; Mtb heat-shock: 92.4%. Cc1nn(C)c2c(NCc3cccnc3)nc(C3CC3)nc12 read Mtb growth Cornell: -23.2%; Mtb heat-shock: -26.82%. For COc1ccnc(N2CCN(C(=O)Cc3ccn(C(C)C)n3)CC2)n1 the result was Mtb heat-shock: -19.35%. [H][C@@]12OCCN(C(=O)c3ccnnc3)[C@@]1([H])CC[C@@H]2OCc1cccnc1 read Mtb growth Cornell: 5.042%; Mtb heat-shock: -29.1%.

COCC(O)CN1CCC(=O)N(CC(=O)C(C)(C)C)Cc2ccccc21 (configuration not stated) gave Mtb growth Cornell: -0.3061%; Mtb heat-shock: 32.15%. Cn1ccnc1C1CCN(S(=O)(=O)c2ccc3[nH]c(=O)[nH]c3c2)CC1 read Mtb growth Cornell: -14.52%; Mtb heat-shock: -10.36%. Result for COC(=O)CSc1nnc(CCNC(=O)OC(C)(C)C)o1 was Mtb growth Cornell: 36.7%; Mtb heat-shock: 12.63%. [H][C@@]12C[C@H](C(=O)N3CCCC3)[C@@]([H])(CN(C(=O)Nc3ccc(CC)cc3)C1)O2 gave Mtb growth Cornell: -25.04%; Mtb heat-shock: -10.01%.

CN(C)c1ccc2c(c1)CN(C(=O)c1ccco1)C2c1cnco1 (configuration not stated) read Mtb growth Cornell: -36.08%; Mtb heat-shock: 1.154%. With O=C(CN1CCCC1Cn1cncn1)Nc1ccc(Cl)cn1 (configuration not stated) the screen gave Mtb growth Cornell: -6.079%; Mtb heat-shock: 19.85%.